In patent US20240327494A1:
No constants are given. Whether binding was seen depends on the method and setting. Some results given as binding are weak or reduced against the parent protein; the word gives no strength.

By UniProt entry, the sequences of proteins in these tests, tags left out. Where a name states a change or a piece, a line headed by the entry shows the natural chain unless it says otherwise. Residues count along the entry.
UniProt P22004, residues 382-513: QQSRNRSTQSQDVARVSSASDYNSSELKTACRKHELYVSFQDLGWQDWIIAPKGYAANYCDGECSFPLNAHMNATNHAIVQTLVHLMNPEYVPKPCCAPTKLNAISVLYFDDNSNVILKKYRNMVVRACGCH
UniProt P27037: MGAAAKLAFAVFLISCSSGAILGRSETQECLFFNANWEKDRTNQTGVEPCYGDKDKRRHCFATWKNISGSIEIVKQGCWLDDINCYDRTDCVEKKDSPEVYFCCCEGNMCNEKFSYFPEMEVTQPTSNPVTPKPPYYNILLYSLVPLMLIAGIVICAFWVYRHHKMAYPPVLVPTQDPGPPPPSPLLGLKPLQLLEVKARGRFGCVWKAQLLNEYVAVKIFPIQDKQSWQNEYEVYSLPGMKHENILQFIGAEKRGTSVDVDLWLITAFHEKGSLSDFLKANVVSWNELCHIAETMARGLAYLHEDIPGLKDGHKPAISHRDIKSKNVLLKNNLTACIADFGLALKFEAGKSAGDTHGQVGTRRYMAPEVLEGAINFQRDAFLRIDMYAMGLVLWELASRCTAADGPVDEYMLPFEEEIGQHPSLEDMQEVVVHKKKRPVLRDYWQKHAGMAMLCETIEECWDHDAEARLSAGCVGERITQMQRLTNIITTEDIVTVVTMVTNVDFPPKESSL

How the values were obtained:
[1] = target: T1, GDF11 (UniProt O95390); assay: SPR (Biacore), ligand amine-coupled on CM5 chip, ActRIIA-mFc in solution
T1 sequence (looked up): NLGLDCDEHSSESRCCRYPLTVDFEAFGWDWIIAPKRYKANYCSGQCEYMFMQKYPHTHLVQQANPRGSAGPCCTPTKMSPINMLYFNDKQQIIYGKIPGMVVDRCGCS

[2] = target: BMP6 (UniProt P22004); assay: similar binding assay (Biacore)
[3] = target: T2, BMP10 (UniProt O95393); assay: similar binding assay (Biacore)
T2 sequence (looked up): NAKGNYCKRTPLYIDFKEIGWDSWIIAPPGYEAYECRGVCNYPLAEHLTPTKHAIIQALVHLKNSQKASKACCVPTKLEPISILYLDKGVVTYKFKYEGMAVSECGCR

[4] = target: T3, activin B (UniProt P09529); assay: similar binding assay (Biacore)
T3 sequence (looked up): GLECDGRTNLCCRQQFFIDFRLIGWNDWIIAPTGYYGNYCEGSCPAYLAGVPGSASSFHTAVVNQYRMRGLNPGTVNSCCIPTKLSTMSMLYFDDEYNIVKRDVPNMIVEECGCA

[5] = target: T4, GDF8 (UniProt O14793); assay: similar binding assay (Biacore)
T4 sequence (looked up): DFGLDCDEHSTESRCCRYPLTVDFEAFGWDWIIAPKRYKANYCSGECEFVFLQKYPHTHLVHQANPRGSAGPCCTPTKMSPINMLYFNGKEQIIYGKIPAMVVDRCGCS

Measured: binding

ActRIIA-mFc (from UniProt P27037 21-135) (Fc fusion)
binds: [1] | [2] | [3] | [4] | [5]
